PubChem BioAssay AID1508588 | Peter MacCallum Cancer Centre – 2020

Aim: 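Which gene losses make BRAF-mutant melanoma cells more responsive to vemurafenib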 (primary screen)
System: human WM266.4 melanoma cells (BRAF V600 mutant)
Reagent: siRNA pool against human genes, 40 nM
Duration: 96 h from transfection to read-out
Conditions: vemurafenib 300 nM (about IC25), added 48 h after transfection, for 48 h; comparison arm got DMSO vehicle only
Measured: 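Cell gain (DAPI nuclei at end minus before drug, mean of two replicates) and medium lactate by absorbance per cell, both as ratio to non-targeting siRNA, also grouped into fold-change classes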
Reading the numbers: cell gain with vemurafenib: higher = more cell gain than with non-targeting siRNA; lactate per cell with vemurafenib: higher = more lactate made per cell
Active means: 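Enhancement is called by pairing each knock-down's vehicle-arm and drug-arm fold-change classes for viability or glycolysis; which class combinations qualify is not given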
Meaning of the calls: active = enhances vemurafenib effect; inactive = no enhancement seen
In all, the deposit lists about 18,000 reagents; this is an unselected part. In the full data, 790 (4.4%) were called active. 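Calls rest on a combination of fold-change classes in drug and vehicle arms, not all shown here.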

For GET1 (GeneID 7485), what does the deposit list?
cell gain with vemurafenib: 0.59; lactate per cell with vemurafenib: 0.62; call: inactive

With LRRN4CL (GeneID 221091), how do the results read?
cell gain with vemurafenib: 0.99; lactate per cell with vemurafenib: 0.48; call: inactive

For ZNF618 (GeneID 114991), what does the deposit list?
cell gain with vemurafenib: 0.7; lactate per cell with vemurafenib: 1.36; call: inactive

What is on record for LHFPL6 (GeneID 10186)?
cell gain with vemurafenib: 0.44; lactate per cell with vemurafenib: 1.46; call: inactive

How did the screen score LIMA1 (GeneID 51474)?
cell gain with vemurafenib: 0.91; lactate per cell with vemurafenib: 0.46; call: inactive

For RIMS3 (GeneID 9783), what does the deposit list?
cell gain with vemurafenib: 0.52; lactate per cell with vemurafenib: 1.32; call: inactive

With CDK1 (GeneID 983), what does the deposit list?
cell gain with vemurafenib: -0.06; lactate per cell with vemurafenib: 6.88; call: inactive

For SLC17A2 (GeneID 10246), what does the deposit list?
cell gain with vemurafenib: 1.39; lactate per cell with vemurafenib: 0.88; call: inactive

With TRA2A (GeneID 29896), what does the deposit list?
cell gain with vemurafenib: 0.37; lactate per cell with vemurafenib: 1.52; call: inactive

With NUP62CL (GeneID 54830), what was measured?
cell gain with vemurafenib: 0.58; lactate per cell with vemurafenib: 1.1; call: inactive

For TMED9 (GeneID 54732), what does the deposit list?
cell gain with vemurafenib: 0.7; lactate per cell with vemurafenib: 0.48; call: active

For CGB2 (GeneID 114336), what does the deposit list?
cell gain with vemurafenib: 0.19; lactate per cell with vemurafenib: 3.17; call: inactive

How did the screen score GOLGA8A (GeneID 23015)?
cell gain with vemurafenib: 0.35; lactate per cell with vemurafenib: 0.62; call: inactive

With PSENEN (GeneID 55851), what does the deposit list?
cell gain with vemurafenib: 0.8; lactate per cell with vemurafenib: 0.38; call: inactive

With PSD4 (GeneID 23550), what was measured?
cell gain with vemurafenib: 0.86; lactate per cell with vemurafenib: 0.42; call: inactive

With TCTN2 (GeneID 79867), what was measured?
cell gain with vemurafenib: 0.93; lactate per cell with vemurafenib: 0.68; call: inactive

Records above whose target name starts with C or c (2):
CDK1 (GeneID 983) — cell gain with vemurafenib = -0.06; lactate per cell with vemurafenib = 6.88; call = inactive
CGB2 (GeneID 114336) — cell gain with vemurafenib = 0.19; lactate per cell with vemurafenib = 3.17; call = inactive
